## Assay results

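Viability of the MMM1 multiple myeloma cell line after 48 hours of drug exposure, measured as ATP luminescence with CellTiter-Glo. Each drug was tested as a dilution series from about 0.00003 to 92 µM, with most series topping out near 45.8 µM. The number is the fitted AC50 potency; a lower value means a more potent effect. Calls come from NCATS curve classes and activity scores: actives score 40 to 100, while inconclusive rows are weak, poorly fitted, single-point or opposite-direction curves scoring 1 to 39.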

Values are in µM. Every entry below has the call inconclusive. These entries are mostly ones the record files as inconclusive; other results of the assay are not listed here. Potencies fitted to partial, single-point or poorly fitting curves are rough. Some entries filed as inconclusive have a full curve. The first word of each remark tells which way the curve ran; it can be opposite to the aim of the assay. Activity scores are not listed here.

For O=C1NC(=O)[C@@H](c2cn3c4c(cccc24)CCC3)[C@H]1c1c[nH]c2ccccc12 the result was Potency 18.65 µM (cytotoxic, partial curve, poor fit). N=c1nc(N2CCCCC2)cc(N)n1O read Potency 0.0132 µM (rising, full curve). For O=C(O)C1(Cc2cccc(Nc3nccs3)n2)CCC(Oc2cccc(Cl)c2F)CC1 (stereo not given) the result was Potency 23.48 µM (rising, single point). NC(=O)c1cccc2cn(-c3ccc([C@@H]4CCCNC4)cc3)nc12 gave Potency 0.0074 µM (rising, full curve, poor fit). Result for C[C@@H]1CC[C@@]2(OC1)OC1CC3C4CC=C5CC(O)CCC5(C)C4CCC3(C)C1[C@@H]2C (stereo not given in full) was Potency 0.0083 µM (rising, full curve, poor fit). COc1ccc([C@@H]2CNC(=O)C2)cc1OC1CCCC1 gave Potency 0.0118 µM (rising, full curve).

c1ccc2c(CN3CCNCC3)cccc2c1 read Potency 0.0042 µM (rising, full curve, poor fit). With COc1cc(NS(=O)(=O)c2ccc(N)cc2)nc(OC)n1 the assay gave Potency 0.0118 µM (rising, full curve, poor fit). CC(C)(C)NC(=O)[C@H]1CN(Cc2cccnc2)CCN1C[C@@H](O)C[C@@H](Cc1ccccc1)C(=O)N[C@H]1c2ccccc2C[C@H]1O read Potency 26.35 µM (cytotoxic, single point). Result for Cc1ccccc1C(OCCN(C)C)c1ccccc1 (stereo not given) was Potency 0.0042 µM (rising, full curve, poor fit). Result for COc1cc([C@@H]2c3cc4c(cc3[C@@H](O[C@@H]3O[C@@H]5CO[C@@H](c6cccs6)O[C@@H]5[C@H](O)[C@@H]3O)[C@H]3COC(=O)[C@H]23)OCO4)cc(OC)c1O was Potency 14.82 µM (cytotoxic, partial curve, poor fit). With COC(=O)[C@@H]1[C@H]2C[C@@H]3c4[nH]c5ccccc5c4CCN3C[C@@H]2CC[C@@H]1O the assay gave Potency 0.0105 µM (rising, full curve).

CNC(=O)CN1CCC(Oc2cc3c(Nc4cccc(Cl)c4F)ncnc3cc2OC)CC1 gave Potency 37.22 µM (cytotoxic, single point). CN(C)CC[C@H](c1ccc(Cl)cc1)c1ccccn1 read Potency 0.0148 µM (rising, full curve). Result for Nc1nc(=O)n([C@H]2C[C@H](O)[C@@H](CO)O2)cc1F was Potency 0.0074 µM (rising, full curve). CCN(CC)CC#CCOC(=O)C(O)(c1ccccc1)C1CCCCC1 (stereo not given) read Potency 29.57 µM (cytotoxic, partial curve, poor fit). For CN1[C@@H]2CCC[C@@H]1CC(NC(=O)c1nn(C)c3ccccc13)C2 (stereo not given in full) the result was Potency 10.49 µM (cytotoxic, partial curve, poor fit). Nc1nc(NCCNc2ncc(-n3ccnc3)c(-c3ccc(Cl)cc3Cl)n2)ccc1[N+](=O)[O-] gave Potency 33.17 µM (cytotoxic, single point).

COc1cc(C(=O)NS(=O)(=O)c2ccccc2C)ccc1Cc1cn(C)c2ccc(NC(=O)OC3CCCC3)cc12 gave Potency 26.35 µM (cytotoxic, single point). With C[C@](Cc1c[nH]c2ccccc12)(NC(=O)OC1C2CC3CC(C2)CC1C3)C(=O)NC[C@H](NC(=O)CCC(=O)O)c1ccccc1 (stereo not given in full) the assay gave Potency 0.003 µM (rising, full curve, poor fit). Result for C[C@H]1C[C@H]2[C@@H]3CCC4=CC(=O)C=C[C@]4(C)[C@@H]3C(=O)C[C@]2(C)[C@@]1(O)C(=O)CO was Potency 0.0235 µM (rising, full curve). CN(C)c1ccc(C(=O)NCCCCCCC(=O)NO)cc1 read Potency 16.63 µM (cytotoxic, partial curve, poor fit).

For reference, 2 entries once more:

| compound | Potency (µM) | remark |
|---|---|---|
| `Cc1ccccc1C(OCCN(C)C)c1ccccc1` (stereo not given) | 0.0042 | rising, full curve, poor fit |
| `C[C@H]1C[C@H]2[C@@H]3CCC4=CC(=O)C=C[C@]4(C)[C@@H]3C(=O)C[C@]2(C)[C@@]1(O)C(=O)CO` | 0.0235 | rising, full curve |

Source: PubChem BioAssay AID1918976 (NCATS, 2023).